Source: patent US20150197546A1
Results are given in words; binding and its absence hold for the method and conditions named. Values belong to the binder of their own block, whether it stands above or below them.

Target: trypsin (Pierce Biotechnology Inc.)
Experiment: ELISA, trypsin coated on plate, purified peptide detected with anti-S-tag HRP

binding: no binding
B1: α-chymotrypsin-binding peptide No. 2 (designed binder, not shown: large carriers)
chain: DPQFGLFSKYRTPNCMRHRRHFCTMVYKPVCGSDMSTYANECTLCMKIREGGHNIKIIRNGPC

binding: no binding
B2: α-chymotrypsin-binding peptide No. 6 (designed binder, not shown: large carriers)
chain: DPQFGLFSKYRTPNCRRWLLPWCTYKYKPVCGSDMSTYANECTLCMKIREGGHNIKIIRNGPC
